The list shows a part of the results.
compound: C[C@H](C1=CC=C(C=C1)C(=O)NC2=C3C=CNC3=NC=C2)N; experiment: log2 fold change, soluble protein after heating vs DMSO (PISA); higher = thermal stabilisation; K562 lysate, 10 uM; active = over 0.2 and 3.5 SD of the protein, either way, in both replicates (recomputed)
Outline: (§1)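 K562 pellets were dounce-homogenised in PBS pH 7.4 containing 1 mM MgCl2, and the crude extract, at 1 mg/mL protein, was exposed to 10 μM compound for 30 min. Aliquots were heated for 3 min across 48°C-58°C, pooled, brought to 0.5% NP-40 at 4°C and spun at 21,000xg for 90 min, with the supernatant taken as soluble protein. TMTpro 16plex LC-MS/MS with equalised channel sums quantified that protein. Values are log-two fold changes in thermal stability relative to solvent controls, taken from duplicates.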

Protein sequences, listed by entry. Tags and fused reporters are not part of them. Lines headed by an entry give the natural chain unless they say otherwise; changes in a name come on top.
UniProt Q9Y219: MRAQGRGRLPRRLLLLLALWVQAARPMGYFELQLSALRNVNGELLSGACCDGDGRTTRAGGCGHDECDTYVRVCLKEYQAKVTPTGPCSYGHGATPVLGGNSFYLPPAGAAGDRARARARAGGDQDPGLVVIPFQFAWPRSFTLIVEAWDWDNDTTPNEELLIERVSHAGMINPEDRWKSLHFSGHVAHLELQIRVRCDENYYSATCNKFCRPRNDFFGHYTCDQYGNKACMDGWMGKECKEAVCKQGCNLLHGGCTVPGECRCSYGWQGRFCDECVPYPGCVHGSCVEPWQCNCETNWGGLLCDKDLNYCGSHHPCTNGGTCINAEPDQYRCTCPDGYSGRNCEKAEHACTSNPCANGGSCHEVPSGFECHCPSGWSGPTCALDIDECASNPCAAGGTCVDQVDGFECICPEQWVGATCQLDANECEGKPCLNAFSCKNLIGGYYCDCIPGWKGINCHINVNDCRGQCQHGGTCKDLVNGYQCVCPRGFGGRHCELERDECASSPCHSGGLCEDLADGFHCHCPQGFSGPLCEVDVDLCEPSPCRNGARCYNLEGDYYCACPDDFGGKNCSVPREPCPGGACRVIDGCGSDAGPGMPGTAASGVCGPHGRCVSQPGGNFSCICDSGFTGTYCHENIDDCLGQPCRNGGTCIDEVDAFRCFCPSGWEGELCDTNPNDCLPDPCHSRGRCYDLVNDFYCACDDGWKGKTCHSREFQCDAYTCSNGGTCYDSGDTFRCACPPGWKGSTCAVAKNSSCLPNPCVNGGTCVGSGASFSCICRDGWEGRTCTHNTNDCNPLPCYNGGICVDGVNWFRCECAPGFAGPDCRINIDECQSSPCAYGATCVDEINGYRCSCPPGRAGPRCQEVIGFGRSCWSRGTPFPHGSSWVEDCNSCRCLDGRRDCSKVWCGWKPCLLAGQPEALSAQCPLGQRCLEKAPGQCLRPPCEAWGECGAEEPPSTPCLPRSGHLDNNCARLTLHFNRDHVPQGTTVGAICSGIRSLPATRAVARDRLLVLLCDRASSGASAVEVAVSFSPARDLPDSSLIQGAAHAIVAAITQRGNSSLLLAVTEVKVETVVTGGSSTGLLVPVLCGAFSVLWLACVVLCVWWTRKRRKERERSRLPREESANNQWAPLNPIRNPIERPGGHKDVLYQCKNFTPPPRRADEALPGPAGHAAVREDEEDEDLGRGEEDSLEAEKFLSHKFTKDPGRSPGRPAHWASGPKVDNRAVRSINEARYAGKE
UniProt O00180: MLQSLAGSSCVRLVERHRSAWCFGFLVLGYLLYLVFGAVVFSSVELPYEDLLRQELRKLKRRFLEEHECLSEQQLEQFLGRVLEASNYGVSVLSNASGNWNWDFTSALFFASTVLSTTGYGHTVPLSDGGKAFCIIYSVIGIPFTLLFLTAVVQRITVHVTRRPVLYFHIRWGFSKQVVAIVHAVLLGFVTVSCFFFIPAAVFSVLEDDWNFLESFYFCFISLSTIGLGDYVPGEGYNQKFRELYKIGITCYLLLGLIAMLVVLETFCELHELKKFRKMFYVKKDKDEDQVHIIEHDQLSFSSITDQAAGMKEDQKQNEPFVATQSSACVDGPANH
UniProt Q9P0J7: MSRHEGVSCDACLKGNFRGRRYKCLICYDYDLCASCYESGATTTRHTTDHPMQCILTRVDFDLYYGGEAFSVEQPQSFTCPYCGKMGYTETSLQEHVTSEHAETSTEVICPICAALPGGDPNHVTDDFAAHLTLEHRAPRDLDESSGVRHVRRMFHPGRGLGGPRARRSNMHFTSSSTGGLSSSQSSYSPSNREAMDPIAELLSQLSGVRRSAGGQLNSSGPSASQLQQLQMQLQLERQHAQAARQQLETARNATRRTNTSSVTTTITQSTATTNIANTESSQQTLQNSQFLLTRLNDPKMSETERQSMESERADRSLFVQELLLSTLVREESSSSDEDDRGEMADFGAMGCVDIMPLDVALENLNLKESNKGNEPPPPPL
UniProt Q7LBC6: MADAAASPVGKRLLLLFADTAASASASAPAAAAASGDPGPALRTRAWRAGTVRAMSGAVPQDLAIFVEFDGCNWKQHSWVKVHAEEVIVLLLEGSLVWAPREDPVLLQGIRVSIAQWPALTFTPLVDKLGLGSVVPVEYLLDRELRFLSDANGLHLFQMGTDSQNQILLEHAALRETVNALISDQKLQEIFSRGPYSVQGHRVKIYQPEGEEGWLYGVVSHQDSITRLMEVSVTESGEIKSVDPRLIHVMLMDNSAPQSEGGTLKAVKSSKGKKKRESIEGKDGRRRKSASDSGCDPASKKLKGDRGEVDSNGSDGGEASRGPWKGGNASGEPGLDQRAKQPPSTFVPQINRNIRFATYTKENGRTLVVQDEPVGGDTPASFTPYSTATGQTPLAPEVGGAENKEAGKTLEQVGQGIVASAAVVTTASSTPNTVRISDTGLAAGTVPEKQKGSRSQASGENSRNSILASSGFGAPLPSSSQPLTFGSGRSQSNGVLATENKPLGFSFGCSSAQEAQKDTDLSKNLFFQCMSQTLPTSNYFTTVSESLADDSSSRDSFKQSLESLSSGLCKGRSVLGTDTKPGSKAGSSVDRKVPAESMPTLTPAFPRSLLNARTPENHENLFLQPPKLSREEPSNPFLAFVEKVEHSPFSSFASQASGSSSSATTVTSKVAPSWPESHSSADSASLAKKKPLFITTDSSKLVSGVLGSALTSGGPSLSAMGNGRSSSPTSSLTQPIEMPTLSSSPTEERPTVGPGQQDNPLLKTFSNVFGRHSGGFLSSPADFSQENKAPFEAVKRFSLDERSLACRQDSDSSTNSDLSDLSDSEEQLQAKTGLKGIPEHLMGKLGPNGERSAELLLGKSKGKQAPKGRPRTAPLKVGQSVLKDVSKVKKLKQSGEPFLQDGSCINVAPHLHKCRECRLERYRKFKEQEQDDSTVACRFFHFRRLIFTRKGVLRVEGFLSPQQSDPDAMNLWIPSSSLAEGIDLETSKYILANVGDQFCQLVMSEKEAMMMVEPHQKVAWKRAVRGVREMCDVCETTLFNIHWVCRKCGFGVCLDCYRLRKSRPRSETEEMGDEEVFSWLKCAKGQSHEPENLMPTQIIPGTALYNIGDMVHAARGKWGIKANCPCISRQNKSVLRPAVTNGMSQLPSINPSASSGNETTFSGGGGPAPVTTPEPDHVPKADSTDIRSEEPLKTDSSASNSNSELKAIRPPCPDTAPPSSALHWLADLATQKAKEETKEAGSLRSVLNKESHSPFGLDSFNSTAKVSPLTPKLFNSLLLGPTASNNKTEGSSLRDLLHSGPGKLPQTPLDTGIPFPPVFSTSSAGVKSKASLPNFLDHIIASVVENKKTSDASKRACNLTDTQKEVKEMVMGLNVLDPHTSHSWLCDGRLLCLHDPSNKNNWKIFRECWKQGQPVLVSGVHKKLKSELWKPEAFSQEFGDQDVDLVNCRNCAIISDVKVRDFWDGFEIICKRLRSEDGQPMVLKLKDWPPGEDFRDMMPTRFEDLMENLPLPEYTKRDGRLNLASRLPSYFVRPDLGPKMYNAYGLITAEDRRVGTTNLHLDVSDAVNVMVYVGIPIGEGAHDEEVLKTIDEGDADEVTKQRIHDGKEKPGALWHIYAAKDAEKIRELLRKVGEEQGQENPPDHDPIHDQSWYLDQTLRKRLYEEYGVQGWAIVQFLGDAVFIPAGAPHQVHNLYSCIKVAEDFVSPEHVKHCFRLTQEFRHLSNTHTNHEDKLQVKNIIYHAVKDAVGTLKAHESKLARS
UniProt Q8NB78: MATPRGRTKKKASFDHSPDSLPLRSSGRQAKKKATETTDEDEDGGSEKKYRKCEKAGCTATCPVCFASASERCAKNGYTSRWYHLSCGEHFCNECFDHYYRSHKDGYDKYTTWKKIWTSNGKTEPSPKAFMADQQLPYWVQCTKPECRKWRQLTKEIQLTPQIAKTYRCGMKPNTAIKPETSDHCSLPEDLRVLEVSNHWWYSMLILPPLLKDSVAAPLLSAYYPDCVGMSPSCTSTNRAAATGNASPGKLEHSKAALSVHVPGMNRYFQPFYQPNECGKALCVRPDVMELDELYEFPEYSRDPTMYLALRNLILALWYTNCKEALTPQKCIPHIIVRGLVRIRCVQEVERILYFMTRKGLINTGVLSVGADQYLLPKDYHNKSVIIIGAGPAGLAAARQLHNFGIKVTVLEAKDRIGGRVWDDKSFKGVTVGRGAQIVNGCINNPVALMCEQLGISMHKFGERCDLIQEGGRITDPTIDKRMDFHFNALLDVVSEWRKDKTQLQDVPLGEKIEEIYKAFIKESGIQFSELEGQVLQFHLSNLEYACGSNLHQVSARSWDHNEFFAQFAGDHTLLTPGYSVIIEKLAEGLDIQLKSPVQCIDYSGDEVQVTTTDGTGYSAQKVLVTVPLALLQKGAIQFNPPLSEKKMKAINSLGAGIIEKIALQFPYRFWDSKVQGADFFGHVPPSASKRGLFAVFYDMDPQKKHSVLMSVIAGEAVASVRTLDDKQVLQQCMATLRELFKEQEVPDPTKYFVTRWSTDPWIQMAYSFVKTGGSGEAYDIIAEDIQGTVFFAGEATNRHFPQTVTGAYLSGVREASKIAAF
UniProt Q8N5M9: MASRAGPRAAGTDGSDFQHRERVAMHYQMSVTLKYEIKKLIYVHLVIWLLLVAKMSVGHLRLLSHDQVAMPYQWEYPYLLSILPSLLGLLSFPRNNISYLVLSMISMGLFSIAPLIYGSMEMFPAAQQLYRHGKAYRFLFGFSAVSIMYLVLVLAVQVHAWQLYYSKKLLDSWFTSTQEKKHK
UniProt Q92551: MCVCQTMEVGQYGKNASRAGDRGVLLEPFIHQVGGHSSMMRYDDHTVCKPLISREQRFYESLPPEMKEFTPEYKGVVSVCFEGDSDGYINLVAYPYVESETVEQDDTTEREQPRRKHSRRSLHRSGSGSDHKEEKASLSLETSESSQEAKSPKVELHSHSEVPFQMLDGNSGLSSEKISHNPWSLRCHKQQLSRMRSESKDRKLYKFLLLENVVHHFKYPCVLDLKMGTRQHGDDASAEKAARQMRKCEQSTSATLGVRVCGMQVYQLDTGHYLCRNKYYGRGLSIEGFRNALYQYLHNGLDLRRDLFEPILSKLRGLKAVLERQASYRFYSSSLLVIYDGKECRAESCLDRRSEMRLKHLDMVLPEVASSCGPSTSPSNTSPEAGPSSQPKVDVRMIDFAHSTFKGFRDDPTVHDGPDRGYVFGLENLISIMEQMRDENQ
UniProt O95279: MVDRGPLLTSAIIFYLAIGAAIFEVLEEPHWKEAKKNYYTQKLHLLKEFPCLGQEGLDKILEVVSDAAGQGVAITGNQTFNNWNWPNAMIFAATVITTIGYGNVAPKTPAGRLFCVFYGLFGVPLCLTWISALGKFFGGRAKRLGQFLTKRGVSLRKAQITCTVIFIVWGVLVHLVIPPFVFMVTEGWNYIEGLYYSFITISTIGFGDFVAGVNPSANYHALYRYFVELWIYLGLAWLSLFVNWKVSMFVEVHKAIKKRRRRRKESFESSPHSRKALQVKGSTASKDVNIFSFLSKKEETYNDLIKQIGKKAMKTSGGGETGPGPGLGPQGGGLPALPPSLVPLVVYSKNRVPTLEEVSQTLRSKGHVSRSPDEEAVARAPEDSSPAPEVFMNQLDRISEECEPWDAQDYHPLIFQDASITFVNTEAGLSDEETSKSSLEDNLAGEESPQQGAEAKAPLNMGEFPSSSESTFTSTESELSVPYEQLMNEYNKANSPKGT
UniProt Q9H079: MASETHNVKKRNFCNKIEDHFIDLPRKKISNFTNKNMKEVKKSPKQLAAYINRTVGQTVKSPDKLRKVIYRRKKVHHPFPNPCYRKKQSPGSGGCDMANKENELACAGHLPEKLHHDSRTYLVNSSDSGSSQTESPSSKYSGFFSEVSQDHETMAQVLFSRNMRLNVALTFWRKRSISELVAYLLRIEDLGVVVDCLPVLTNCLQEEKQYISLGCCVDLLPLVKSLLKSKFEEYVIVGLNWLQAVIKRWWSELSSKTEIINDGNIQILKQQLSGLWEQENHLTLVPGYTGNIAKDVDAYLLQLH
UniProt O43731: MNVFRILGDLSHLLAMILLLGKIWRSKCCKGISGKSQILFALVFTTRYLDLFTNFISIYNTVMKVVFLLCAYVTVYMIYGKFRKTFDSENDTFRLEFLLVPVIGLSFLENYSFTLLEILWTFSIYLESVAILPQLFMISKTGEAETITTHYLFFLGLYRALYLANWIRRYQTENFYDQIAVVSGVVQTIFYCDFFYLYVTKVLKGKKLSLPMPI
UniProt P24390: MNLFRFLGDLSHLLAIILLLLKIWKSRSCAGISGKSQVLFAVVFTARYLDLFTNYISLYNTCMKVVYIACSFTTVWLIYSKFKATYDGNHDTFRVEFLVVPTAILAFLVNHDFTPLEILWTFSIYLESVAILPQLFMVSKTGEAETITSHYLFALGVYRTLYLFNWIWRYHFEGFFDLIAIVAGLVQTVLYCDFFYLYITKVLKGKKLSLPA
UniProt O14713: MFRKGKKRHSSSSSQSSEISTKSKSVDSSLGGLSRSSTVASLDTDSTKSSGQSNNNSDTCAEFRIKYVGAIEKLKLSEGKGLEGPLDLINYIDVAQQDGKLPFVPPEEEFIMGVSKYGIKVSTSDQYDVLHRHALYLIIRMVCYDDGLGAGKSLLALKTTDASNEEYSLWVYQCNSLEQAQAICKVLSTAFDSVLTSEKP

Target	log2 fold change
JAG2 (UniProt Q9Y219)	inactive: -0.127
KCNK1 (UniProt O00180)	inactive: 0.021
KCMF1 (UniProt Q9P0J7)	inactive: -0.008
ITGAE (UniProt P38570)	inactive: -0.382
KAT2A (UniProt Q92830)	inactive: 0.055
KDM3B (UniProt Q7LBC6)	inactive: -0.07
KDM1B (UniProt Q8NB78)	inactive: 0.027
ITGA2B (UniProt P08514)	inactive: 0.076
IRS2 (UniProt Q9Y4H2)	active: -0.578
KAT6B (UniProt Q8WYB5)	inactive: -0.135
IPO5 (UniProt H0Y3V4)	inactive: 0.011
IQGAP3 (UniProt Q86VI3)	inactive: -0.023
ITPR1 (UniProt Q14643)	inactive: -0.069
IQUB (UniProt Q8NA54)	inactive: 0.008
JAGN1 (UniProt Q8N5M9)	inactive: -0.073
IQGAP1 (UniProt P46940)	inactive: 0.005
JAK3 (UniProt P52333)	inactive: 0.418
IP6K1 (UniProt Q92551)	inactive: -0.026
ITPRID2 (UniProt P28290)	inactive: 0.119
JMJD7 (UniProt P0C870)	inactive: -0.186
KCNK5 (UniProt O95279)	inactive: -0.214
ITIH2 (UniProt P19823)	inactive: -0.004
KCNN4 (UniProt O15554)	inactive: 0.167
KATNBL1 (UniProt Q9H079)	inactive: 0.05
JMJD4 (UniProt Q9H9V9)	inactive: -0.024
KDELR3 (UniProt O43731)	inactive: -0.119
KDELR1 (UniProt P24390)	inactive: -0.199
ITM2A (UniProt O43736)	inactive: 0.097
ITGB1BP1 (UniProt O14713)	inactive: 0.023

compound: C[C@H](Nc1ncnc2nc[nH]c12)c1cc2cccc(Cl)c2c(=O)n1-c1ccccc1 [duvelisib]; experiment: as above
Outline: as §1

Target	log2 fold change
KCTD7 (UniProt Q96MP8)	inactive: 0.053
JAG2 (UniProt Q9Y219)	inactive: -0.073
KCNK1 (UniProt O00180)	inactive: 0.053
KCMF1 (UniProt Q9P0J7)	inactive: 0.075
KAT2A (UniProt Q92830)	inactive: 0.073
JTB (UniProt O76095)	inactive: -0.057
KDM3B (UniProt Q7LBC6)	inactive: -0.022
KDM1B (UniProt Q8NB78)	inactive: 0.135
JUN (UniProt P05412)	inactive: 0.172
ITM2C (UniProt Q9NQX7)	inactive: -0.017
IRS2 (UniProt Q9Y4H2)	inactive: 0
KAT6B (UniProt Q8WYB5)	inactive: 0.097
IPO5 (UniProt H0Y3V4)	inactive: -0.046
IQGAP3 (UniProt Q86VI3)	inactive: -0.028
IST1 isoform 2 (UniProt P53990)	inactive: -0.11
JAGN1 (UniProt Q8N5M9)	inactive: 0.008
IQGAP1 (UniProt P46940)	inactive: -0.002
IP6K1 (UniProt Q92551)	inactive: 0.031
JMJD7 (UniProt P0C870)	inactive: -0.23
KBTBD7 (UniProt Q8WVZ9)	inactive: -0.025
KCNK5 (UniProt O95279)	inactive: -0.55
KATNBL1 (UniProt Q9H079)	inactive: 0.164
JMJD4 (UniProt Q9H9V9)	inactive: 0.044
KDELR3 (UniProt O43731)	inactive: -0.038
KDELR1 (UniProt P24390)	inactive: -0.036
ITM2A (UniProt O43736)	inactive: 0.003
ITGB1BP1 (UniProt O14713)	inactive: 0.089

compound: Cc1cc(Nc2cc(CN3CCOCC3)c3nc(C)c(Cc4ccc(Cl)cc4F)n3n2)n[nH]1 [gandotinib]; experiment: as above
Outline: as §1

Target	log2 fold change
JAG2 (UniProt Q9Y219)	inactive: -0.174
KCNK1 (UniProt O00180)	inactive: 0.094
KCMF1 (UniProt Q9P0J7)	inactive: -0.003
ITGAE (UniProt P38570)	inactive: 0.109
KAT2A (UniProt Q92830)	inactive: -0.131
KDM3B (UniProt Q7LBC6)	inactive: 0.025
KDM1B (UniProt Q8NB78)	inactive: 0.035
ITGA2B (UniProt P08514)	inactive: 0.155
IRS2 (UniProt Q9Y4H2)	inactive: 0.296
KAT6B (UniProt Q8WYB5)	inactive: 0.003
IPO5 (UniProt H0Y3V4)	inactive: 0.084
IQGAP3 (UniProt Q86VI3)	inactive: -0.076
ITPR1 (UniProt Q14643)	inactive: -0.114
IQUB (UniProt Q8NA54)	inactive: -0.027
JAGN1 (UniProt Q8N5M9)	inactive: -0.011
IQGAP1 (UniProt P46940)	inactive: -0.082
JAK3 (UniProt P52333)	inactive: -0.526
IP6K1 (UniProt Q92551)	inactive: 0.051
ITPRID2 (UniProt P28290)	inactive: -0.14
JMJD7 (UniProt P0C870)	inactive: 0.005
KCNK5 (UniProt O95279)	inactive: -0.148
ITIH2 (UniProt P19823)	inactive: 0.055
KCNN4 (UniProt O15554)	inactive: 0.04
KATNBL1 (UniProt Q9H079)	inactive: -0.021
JMJD4 (UniProt Q9H9V9)	inactive: -0.07
KDELR3 (UniProt O43731)	inactive: 0.051
KDELR1 (UniProt P24390)	inactive: 0.101
ITM2A (UniProt O43736)	inactive: -0.108
ITGB1BP1 (UniProt O14713)	inactive: 0.004

Reference: the supplement of paper PMC10849652
